Measurements: publication PMC5940305, “The Rab11-binding protein RELCH/KIAA1468 controls intracellular cholesterol distribution” (The Journal of Cell Biology, 2018)
These are yes or no findings as the source states them, for the method shown. Binding can be weak; no strength is given.

By UniProt entry, the sequences of proteins in these tests, tags left out. Where a name states a change or a piece, a line headed by the entry shows the natural chain unless it says otherwise.
UniProt Q15907: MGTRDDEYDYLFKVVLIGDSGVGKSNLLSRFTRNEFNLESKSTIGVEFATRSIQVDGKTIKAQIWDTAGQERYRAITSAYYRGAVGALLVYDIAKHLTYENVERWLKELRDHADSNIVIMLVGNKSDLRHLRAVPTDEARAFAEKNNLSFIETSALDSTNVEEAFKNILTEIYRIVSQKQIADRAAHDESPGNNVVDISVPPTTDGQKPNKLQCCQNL

Target: Gal4BD-Rab11b, GTP-locked (UniProt Q15907)
Experiment: two-hybrid; S. cerevisiae PJ69-4A, Gal4AD (pACT2) RELCH constructs and Gal4BD (pFBT9) GTP-locked Rabs; growth on QDO plates, 3 d at 30°C

binding: binds
B1: Gal4AD-RELCH, full length (protein, UniProt Q148V7 1-1216)
chain: MAAMAPGGGGSGSGVNPFLSDSDEDDDEVAATEDRRAGLRLGAGVGLDPGSAGSLSPQDPMALGSSARPGLAVEMSAAPAALGGSGETPARLSIDAIAAQLLRDQYLLTALELHTELLESGRELPRLRDYFSNPGNFERQSGTPPGMGAPGIPGASIVGGAGGREPSTTSGGGQLNRAGSISTLDSLDFARYSDDGNRETDERVAVLEFELRKAKETIQALRANLTKAAEHEVPLQERKNYKSSPEIQEPIKPLEKRALNFLVNEFLLKNNYKLTSITFSDENDDQDFELWDDVGLNIPKPPDLLQLYRDFGNHQVTGKDLVDVASGVDEDELEALTPILGNVPPTLDTPLPIENTLLVQKLEDKISLLNNEKWSLMEQIRRLESEMDILKAEHFATPAVGDSVQPSLVWSSQKDSEDNRQSPAVNSSDQEKTKDVHLEIPDAADSFIPKENSSGSFPRKEREELPPSSVSNKTTLHFDQPNRKLSPAFHQALLSFCRMSADSRLGSEVSRIADSEKSVMLMLGRCLPHIVPNVLLAKREELIPLILCTACLHPEPKERDQLLHILFNLIKRPDDEQRQMILTGCVAFARHVGPTRVEAELLPQCWEQINHKYPERRLLVAESCGALAPYLPKEIRSSLVLSMLQQMLMEDKADLVREAVIKSLGIIMGYIDDPDKYQQGFELLLSALGDPSERVVSATHQVFLPAYAAWTTELGNLQSHLIPTLLNKIEKLLREGEHGLDEHKLHMYLSALQSLIPSLFALVLQNAPFSSKAKLHGEVPHIEVTRFPRPMSPLQDVSTIIGSREQLAVLLQLYDYQLEHEGTTGWESLLWVVNQLLPQLIEIVGKINVTSTACVHEFSRFFWRLCRTFGKIFTNTKVKPQFQEILRLSEENIDSSAGNGVLTKATVPIYATGVLTCYIQEEDRKLLVGFLEDVMTLLSLSHAPLDSLKASFVELGANPAYHELLLTVLWYGVVHTSALVRCTAARMFELLVKGVNETLVAQRVVPALITLSSDPEISVRIATIPAFGTIMETVIQRELLERVKMQLASFLEDPQYQDQHSLHTEVIRTFGRVGPNAEPRFRDEFVIPHLHKLALVNNLQIVDSKKLDIATHLFEAYSALSCCFISEDLMVNHFLPGLRCLRTDMEHLSPEHEVILSSMIKECEQKVENKTVQEPPGSMSIAASLVSEDTKTKFLNKMGQLTTSGAMLANVFQRKK
